# Data: PMC12706146
# These are yes or no findings as the source states them, for the method shown. For part of these data: Binding seen in cells or lysates may run through a third protein. Some results given as binding are weak or reduced against the parent protein; the word gives no strength. Tags and fused reporters may be left off the sequences shown.
# B1: phosphatidylserine synthase PssA (endogenous, MG1655 extract) (enzyme, UniProt P23830 1-451)
# chain: MLSKFKRNKHQQHLAQLPKISQSVDDVDFFYAPADFRETLLEKIASAKQRICIVALYLEQDDGGKGILNALYEAKRQRPELDVRVLVDWHRAQRGRIGAAASNTNADWYCRMAQENPGVDVPVYGVPINTREALGVLHFKGFIIDDSVLYSGASLNDVYLHQHDKYRYDRYHLIRNRKMSDIMFEWVTQNIMNGRGVNRLDDVNRPKSPEIKNDIRLFRQELRDAAYHFQGDADNDQLSVTPLVGLGKSSLLNKTIFHLMPCAEQKLTICTPYFNLPAILVRNIIQLLREGKKVEIIVGDKTANDFYIPEDEPFKIIGALPYLYEINLRRFLSRLQYYVNTDQLVVRLWKDDDNTYHLKGMWVDDKWMLITGNNLNPRAWRLDLENAILIHDPQLELAPQREKELELIREHTTIVKHYRDLQSIADYPVKVRKLIRRLRRIRIDRLISRIL
# B2: overexpressed PssA (pET24a-PssA) (enzyme, UniProt P23830 1-451)
# chain: B1 chain
# B3: PssA fused with T25 of adenylate cyclase (pKT25-PssA) (enzyme, UniProt P23830 1-451)
# chain: B1 chain
# Tests used:
# [1] = molecular target: T1, His-tagged YgfB (E. coli) (UniProt P0A8C4); assay: pull-down; ligand fishing: 50 ug purified His-YgfB as bait mixed with MG1655 crude extract, held on TALON metal affinity resin, 25 min at 4°C, buffer A (50 mM Tris-HCl pH 8.0, 300 mM NaCl), eluted with 200 mM imidazole; SDS-PAGE with Coomassie; band identified by peptide mapping after in-gel tryptic digestion; only the target purified
# T1 sequence: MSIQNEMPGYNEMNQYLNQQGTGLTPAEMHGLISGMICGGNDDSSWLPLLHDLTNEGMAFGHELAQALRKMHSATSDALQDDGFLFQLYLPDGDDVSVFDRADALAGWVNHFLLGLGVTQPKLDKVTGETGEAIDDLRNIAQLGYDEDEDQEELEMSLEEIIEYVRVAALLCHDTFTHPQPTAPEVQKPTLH
# [2] = molecular target: T1, His-tagged YgfB (E. coli); assay: pull-down; crude extract of ER2566 overexpressing PssA mixed with crude extract of ER2566 overexpressing His-YgfB, TALON resin, 15 min at 4°C, buffer A (50 mM Tris-HCl pH 8.0, 300 mM NaCl), eluted with 200 mM imidazole; SDS-PAGE with Coomassie
# [3] = molecular target: T2, YgfB fused with T18 of adenylate cyclase (pUT18c-YgfB) (E. coli) (UniProt P0A8C4); assay: two-hybrid; bacterial two-hybrid (adenylate cyclase T18/T25) in BTH101 cells, LB plate with 1 mM IPTG and 40 ug/ml X-gal, 24 h at 30°C, colour of the cells
# T2 sequence: T1 sequence
binder,measurement,setting,value
B1,binding,[1],binds
B2,binding,[2],binds
B3,binding,[3],binds
